These are raw signals, not scaled to a control.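 Maximum concentrations were near the MIC for antimicrobials, 500 µM for most other compounds, and as high as 1 mM for known inducer-like compounds. Deletion strains began with a tenfold smaller inoculum, and wells with growth under 10% of the overall median counted as non-growing.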
System: Escherichia coli BW25113
Experiment: growth (OD600 area under curve, 8 h) (OD600 x h); higher = more growth
Experimental: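 E. coli BW25113 reporter strains (wild type, ΔmarA, ΔsoxS, Δrob, each carrying one of 8 lux reporter plasmids) were grown in 40 µl LB in 384-well plates at 37°C, 800 rpm, with each compound at 4 two-fold concentrations, in biological duplicates. Growth is the baseline-corrected OD600 area under the curve over 8 h (0-8 h WT, 1-9 h deletion strains).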

O=c1[nH]c(=O)c2[nH]c(O)nc2[nH]1 [Sodium urate]
growth
Settings	reporter plasmid: EVC	reporter plasmid: acrABp	reporter plasmid: marRABp	reporter plasmid: micFp	reporter plasmid: ompFp	reporter plasmid: robp	reporter plasmid: soxSp	reporter plasmid: tolCp
28.4 µg/ml, genetic background: wild type	3.22	3.15	3.17	3.09	3.02	3.21	3.01	2.96
28.4 µg/ml, genetic background: ΔmarA	2.86	4.28	3.49	3.48	3.24	3.59	2.85	3.02
28.4 µg/ml, genetic background: Δrob	3.02	2.99	3.257	3.02	2.8	2.78	2.75	2.79
28.4 µg/ml, genetic background: ΔsoxS	3.39	3.3	3.28	2.99	3.09	3.31	3.06	3.09
56.8 µg/ml, genetic background: wild type	3.122	2.99	3.28	2.88	3.11	3.33	2.85	2.92
56.8 µg/ml, genetic background: ΔmarA	2.79	4.14	3.51	3.23	3.26	4.04	2.66	2.88
56.8 µg/ml, genetic background: Δrob	2.92	2.86	3.36	2.72	2.93	2.73	2.5	2.6
56.8 µg/ml, genetic background: ΔsoxS	3.33	3.47	3.39	2.9	3.246	3.15	3	3.22
113.7 µg/ml, genetic background: wild type	3.14	3.06	3.27	3.09	3.16	3.3	2.84	3.04
113.7 µg/ml, genetic background: ΔmarA	2.95	3.98	3.39	3.36	3.23	3.76	2.817	3.05
113.7 µg/ml, genetic background: Δrob	3.1	3.08	3.52	3.04	2.95	2.77	2.75	2.91
113.7 µg/ml, genetic background: ΔsoxS	3.38	3.56	3.38	3.04	3.325	3.194	2.99	3.19
227.3 µg/ml, genetic background: wild type	3.09	2.68	3.07	2.75	3.06	2.8	2.72	3.075
227.3 µg/ml, genetic background: ΔmarA	2.76	3.558	3.11	3.24	3.22	3.6	2.52	2.85
227.3 µg/ml, genetic background: Δrob	2.88	2.55	3.21	2.79	2.72	2.395	2.53	2.81
227.3 µg/ml, genetic background: ΔsoxS	3.12	3.169	3.07	2.79	2.96	2.56	2.79	3.27
